Measurements: the supplement of paper PMC12823440, “Inhibitors supercharge kinase turnover through native proteolytic circuits” (Nature, 2025)
Some of the results follow. The calls rarely recur for the same compound in another form.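 Kinases were expressed as nanoluciferase fusions in K562 cells and luminescence was read every 4 h between 2 and 18 h as percent of control, DMSO set to 100% and a positive control to 0%. A time point counts as decreased when the signal drops significantly (2 sigma). The hit call is the authors' own, does not follow from the count of time points alone, and its rule is not shown.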

Amino acid sequences for entries named in this document (tags omitted). A change or cut given only in a name is not applied to a line headed by its entry.
UniProt P29317, whole entry: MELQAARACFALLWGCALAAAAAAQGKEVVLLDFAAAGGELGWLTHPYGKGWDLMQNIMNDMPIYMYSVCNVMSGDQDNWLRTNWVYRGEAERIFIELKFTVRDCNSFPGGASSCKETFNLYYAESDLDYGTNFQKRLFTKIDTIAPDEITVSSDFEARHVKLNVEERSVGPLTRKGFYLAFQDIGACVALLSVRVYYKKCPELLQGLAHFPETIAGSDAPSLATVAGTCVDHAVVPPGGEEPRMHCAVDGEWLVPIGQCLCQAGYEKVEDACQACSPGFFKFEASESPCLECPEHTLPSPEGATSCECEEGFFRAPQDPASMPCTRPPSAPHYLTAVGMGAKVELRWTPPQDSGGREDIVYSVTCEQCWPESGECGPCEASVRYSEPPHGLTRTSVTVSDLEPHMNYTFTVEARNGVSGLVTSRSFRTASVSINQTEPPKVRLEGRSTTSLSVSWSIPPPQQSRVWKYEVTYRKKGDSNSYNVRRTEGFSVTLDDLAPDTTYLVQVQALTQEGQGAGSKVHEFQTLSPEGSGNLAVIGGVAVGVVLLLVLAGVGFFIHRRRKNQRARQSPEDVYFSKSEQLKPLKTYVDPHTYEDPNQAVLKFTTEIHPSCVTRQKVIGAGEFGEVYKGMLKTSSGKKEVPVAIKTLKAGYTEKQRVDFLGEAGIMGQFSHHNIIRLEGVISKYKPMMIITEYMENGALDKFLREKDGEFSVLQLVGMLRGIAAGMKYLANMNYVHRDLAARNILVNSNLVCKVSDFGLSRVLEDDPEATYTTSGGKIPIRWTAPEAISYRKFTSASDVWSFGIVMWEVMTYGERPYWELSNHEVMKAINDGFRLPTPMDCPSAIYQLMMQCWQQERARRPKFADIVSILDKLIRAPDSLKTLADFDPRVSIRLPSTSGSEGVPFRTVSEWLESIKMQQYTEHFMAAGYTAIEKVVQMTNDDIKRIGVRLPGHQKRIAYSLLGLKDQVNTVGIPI
UniProt P11362, whole entry, looked up: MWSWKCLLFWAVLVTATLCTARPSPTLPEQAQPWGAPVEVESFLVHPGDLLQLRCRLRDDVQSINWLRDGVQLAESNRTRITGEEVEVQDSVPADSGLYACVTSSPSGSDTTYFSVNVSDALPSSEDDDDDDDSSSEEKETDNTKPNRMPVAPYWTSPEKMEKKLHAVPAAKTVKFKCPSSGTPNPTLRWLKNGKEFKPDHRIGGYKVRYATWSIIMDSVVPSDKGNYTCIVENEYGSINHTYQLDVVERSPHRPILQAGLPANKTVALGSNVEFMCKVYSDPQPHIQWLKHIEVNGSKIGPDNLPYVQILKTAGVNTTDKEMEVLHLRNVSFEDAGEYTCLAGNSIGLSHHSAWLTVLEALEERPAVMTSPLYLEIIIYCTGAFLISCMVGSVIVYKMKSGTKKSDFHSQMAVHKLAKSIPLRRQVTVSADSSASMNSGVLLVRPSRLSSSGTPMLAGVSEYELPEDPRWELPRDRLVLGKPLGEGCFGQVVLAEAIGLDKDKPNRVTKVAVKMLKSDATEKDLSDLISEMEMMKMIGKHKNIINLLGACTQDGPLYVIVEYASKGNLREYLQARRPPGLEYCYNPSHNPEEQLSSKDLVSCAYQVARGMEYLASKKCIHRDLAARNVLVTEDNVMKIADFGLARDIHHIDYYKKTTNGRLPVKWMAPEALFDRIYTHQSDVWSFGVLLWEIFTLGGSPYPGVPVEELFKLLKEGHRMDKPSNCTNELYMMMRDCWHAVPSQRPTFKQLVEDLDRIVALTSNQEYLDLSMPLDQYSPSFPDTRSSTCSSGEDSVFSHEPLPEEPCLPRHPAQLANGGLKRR
UniProt P21802, whole entry, looked up: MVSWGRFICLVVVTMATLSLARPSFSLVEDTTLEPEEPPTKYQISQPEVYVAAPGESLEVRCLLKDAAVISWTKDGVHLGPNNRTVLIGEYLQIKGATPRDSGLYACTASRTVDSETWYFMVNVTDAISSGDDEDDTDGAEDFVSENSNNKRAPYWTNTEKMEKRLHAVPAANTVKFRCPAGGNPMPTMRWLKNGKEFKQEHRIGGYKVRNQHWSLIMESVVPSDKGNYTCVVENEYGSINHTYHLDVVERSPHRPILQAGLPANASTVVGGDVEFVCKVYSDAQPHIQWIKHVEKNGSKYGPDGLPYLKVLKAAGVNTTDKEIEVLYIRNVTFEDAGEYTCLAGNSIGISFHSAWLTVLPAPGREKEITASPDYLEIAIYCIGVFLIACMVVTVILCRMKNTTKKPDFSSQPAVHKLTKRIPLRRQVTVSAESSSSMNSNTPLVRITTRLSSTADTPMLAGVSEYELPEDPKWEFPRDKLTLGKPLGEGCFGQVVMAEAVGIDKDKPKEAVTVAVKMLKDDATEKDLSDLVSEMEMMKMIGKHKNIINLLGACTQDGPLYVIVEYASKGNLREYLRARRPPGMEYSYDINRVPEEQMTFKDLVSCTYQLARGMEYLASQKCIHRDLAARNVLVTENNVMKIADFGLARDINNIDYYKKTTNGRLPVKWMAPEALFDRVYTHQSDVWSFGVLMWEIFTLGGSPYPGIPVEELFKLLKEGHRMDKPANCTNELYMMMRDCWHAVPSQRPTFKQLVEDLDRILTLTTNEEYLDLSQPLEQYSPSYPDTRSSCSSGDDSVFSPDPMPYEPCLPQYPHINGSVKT
UniProt P14616: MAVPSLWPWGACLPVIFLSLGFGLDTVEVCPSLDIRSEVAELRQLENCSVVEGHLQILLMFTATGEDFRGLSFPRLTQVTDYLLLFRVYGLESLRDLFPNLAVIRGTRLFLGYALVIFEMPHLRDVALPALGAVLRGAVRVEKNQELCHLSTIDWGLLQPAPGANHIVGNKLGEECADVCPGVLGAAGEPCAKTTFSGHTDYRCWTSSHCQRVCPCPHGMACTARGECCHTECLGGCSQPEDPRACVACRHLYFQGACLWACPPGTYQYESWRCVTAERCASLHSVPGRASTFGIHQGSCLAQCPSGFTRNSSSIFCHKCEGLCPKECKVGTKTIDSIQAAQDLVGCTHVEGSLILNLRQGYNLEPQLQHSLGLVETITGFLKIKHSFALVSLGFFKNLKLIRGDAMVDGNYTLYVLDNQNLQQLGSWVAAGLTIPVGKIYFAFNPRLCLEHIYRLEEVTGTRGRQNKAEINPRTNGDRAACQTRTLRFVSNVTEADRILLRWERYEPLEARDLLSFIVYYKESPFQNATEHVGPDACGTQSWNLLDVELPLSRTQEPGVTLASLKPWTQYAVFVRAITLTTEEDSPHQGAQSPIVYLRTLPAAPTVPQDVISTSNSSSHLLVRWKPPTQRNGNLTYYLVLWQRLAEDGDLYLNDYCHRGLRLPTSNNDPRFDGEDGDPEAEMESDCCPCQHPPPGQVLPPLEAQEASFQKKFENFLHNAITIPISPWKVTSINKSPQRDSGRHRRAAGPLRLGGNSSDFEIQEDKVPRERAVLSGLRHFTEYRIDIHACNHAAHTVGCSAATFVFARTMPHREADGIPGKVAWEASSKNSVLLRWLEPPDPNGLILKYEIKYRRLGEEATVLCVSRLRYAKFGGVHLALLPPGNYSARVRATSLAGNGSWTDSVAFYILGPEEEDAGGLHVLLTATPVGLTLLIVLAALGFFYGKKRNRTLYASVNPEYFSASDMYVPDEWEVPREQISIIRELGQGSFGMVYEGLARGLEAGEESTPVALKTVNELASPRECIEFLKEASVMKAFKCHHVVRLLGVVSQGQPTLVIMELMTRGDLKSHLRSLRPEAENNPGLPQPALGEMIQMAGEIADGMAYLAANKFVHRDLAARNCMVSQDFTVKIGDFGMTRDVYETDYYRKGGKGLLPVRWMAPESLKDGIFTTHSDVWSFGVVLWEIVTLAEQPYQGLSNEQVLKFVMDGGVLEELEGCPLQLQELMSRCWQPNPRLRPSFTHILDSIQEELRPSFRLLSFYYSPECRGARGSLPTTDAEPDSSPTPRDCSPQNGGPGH
UniProt Q9Y616: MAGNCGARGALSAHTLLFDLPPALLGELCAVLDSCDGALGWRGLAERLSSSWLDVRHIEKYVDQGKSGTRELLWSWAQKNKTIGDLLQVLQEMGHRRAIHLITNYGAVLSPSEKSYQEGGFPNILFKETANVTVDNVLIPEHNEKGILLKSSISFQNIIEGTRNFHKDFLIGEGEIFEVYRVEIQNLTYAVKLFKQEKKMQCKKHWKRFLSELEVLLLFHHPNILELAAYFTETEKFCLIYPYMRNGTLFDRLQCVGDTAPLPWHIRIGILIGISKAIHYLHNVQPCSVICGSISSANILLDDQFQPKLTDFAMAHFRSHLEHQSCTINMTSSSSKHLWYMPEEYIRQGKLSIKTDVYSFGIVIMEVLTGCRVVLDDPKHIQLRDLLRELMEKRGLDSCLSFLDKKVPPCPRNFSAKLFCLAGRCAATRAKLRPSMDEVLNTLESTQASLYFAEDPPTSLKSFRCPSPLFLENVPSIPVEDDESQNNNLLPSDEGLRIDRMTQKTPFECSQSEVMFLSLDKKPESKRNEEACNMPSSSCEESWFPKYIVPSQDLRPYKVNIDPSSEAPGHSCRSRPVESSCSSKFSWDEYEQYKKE
UniProt P23458: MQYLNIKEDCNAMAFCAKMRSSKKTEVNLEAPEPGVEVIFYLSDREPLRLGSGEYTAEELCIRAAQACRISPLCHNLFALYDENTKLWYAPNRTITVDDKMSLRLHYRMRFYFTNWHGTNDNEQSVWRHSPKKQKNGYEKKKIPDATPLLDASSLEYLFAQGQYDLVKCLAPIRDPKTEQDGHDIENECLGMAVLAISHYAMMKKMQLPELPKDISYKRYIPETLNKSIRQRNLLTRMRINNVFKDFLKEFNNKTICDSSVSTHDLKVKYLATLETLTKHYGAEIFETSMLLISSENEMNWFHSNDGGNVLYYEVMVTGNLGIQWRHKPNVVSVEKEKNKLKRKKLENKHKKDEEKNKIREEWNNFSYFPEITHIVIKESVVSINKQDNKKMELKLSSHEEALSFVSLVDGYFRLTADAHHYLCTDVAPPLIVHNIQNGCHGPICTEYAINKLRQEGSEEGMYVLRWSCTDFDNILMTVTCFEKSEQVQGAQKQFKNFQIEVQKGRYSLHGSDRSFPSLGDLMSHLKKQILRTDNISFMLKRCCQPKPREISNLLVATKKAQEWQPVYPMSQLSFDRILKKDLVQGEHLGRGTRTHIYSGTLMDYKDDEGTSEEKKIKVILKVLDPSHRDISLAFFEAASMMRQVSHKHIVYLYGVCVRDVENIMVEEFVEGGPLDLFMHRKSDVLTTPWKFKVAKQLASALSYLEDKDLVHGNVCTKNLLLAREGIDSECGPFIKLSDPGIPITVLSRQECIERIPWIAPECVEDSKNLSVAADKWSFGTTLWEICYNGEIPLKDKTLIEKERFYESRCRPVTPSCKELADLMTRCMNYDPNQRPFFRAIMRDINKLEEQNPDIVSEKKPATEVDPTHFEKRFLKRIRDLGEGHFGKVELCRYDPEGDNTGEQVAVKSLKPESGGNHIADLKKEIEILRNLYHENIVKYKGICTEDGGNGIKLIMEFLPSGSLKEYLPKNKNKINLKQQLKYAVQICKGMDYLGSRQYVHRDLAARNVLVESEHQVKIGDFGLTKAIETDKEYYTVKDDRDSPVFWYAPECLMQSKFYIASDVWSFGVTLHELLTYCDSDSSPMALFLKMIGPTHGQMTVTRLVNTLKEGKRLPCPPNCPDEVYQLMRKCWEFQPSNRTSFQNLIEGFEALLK
UniProt P53667: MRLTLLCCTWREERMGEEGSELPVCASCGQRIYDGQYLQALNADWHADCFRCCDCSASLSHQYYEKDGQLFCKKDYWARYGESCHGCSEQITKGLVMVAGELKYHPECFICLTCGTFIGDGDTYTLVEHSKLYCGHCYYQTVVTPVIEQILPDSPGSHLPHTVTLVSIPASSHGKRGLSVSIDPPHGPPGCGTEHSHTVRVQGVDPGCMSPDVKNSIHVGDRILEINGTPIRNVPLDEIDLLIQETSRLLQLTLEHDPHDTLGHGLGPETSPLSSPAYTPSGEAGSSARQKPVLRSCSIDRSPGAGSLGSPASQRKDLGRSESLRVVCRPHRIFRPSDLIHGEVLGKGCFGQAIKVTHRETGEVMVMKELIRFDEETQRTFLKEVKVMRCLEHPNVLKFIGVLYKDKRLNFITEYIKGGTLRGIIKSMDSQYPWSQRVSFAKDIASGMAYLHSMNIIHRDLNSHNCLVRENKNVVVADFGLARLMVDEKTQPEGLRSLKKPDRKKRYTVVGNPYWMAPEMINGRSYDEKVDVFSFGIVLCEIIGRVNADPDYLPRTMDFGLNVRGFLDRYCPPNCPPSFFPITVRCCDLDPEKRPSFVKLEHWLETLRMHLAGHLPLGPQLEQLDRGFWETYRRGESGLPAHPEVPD

Experiments:
Assay in all cases: number of time points (of 5) at which kinase-Nluc abundance scored as decreased, DMSO-normalised (count); higher = more persistent destabilization
Details in all cases: K562; 2-18 h
EGFR_L861Q = EGFR_L861Q (UniProt P00533)
EGFR_T790M = EGFR_T790M (UniProt P00533)
EPHA2 = EPHA2 (UniProt P29317)
ERBB3 = ERBB3 (UniProt P21860)
[1] = molecular target: ERBB4_R711C (clone: ERBB4_mut) (UniProt Q15303)
ERN1 = ERN1 (UniProt O75460)
FGFR1 = FGFR1 (UniProt P11362)
FGFR2 = FGFR2 (UniProt P21802)
FGFR3 = FGFR3 (UniProt P22607)
FGR = FGR (UniProt P09769)
FLT3 = FLT3 (UniProt P36888)
FYN = FYN (UniProt P06241)
GSK3A = GSK3A (UniProt P49840)
HER2 = HER2 (UniProt P04626)
INSRR = INSRR (UniProt P14616)
IRAK3 = IRAK3 (UniProt Q9Y616)
JAK1 = JAK1 (UniProt P23458)
LCK = LCK (UniProt P06239)
LIMK1 = LIMK1 (UniProt P53667)
LIMK2 = LIMK2 (UniProt P53671)

Measured: number of time points

O=c1cc(-c2ccccc2)oc2cc(O[C@@H]3O[C@H](CO[C@@H]4O[C@H](CO)[C@@H](O)[C@H](O)[C@H]4O)[C@@H](O)[C@H](O)[C@H]3O)c(O)c(O)c12 [Oroxin B] (10 µM)
0: all assays above

CN(C)c1ccc(-c2nc3ncc(Cl)c(N4CCN(CC(=O)Nc5nccs5)CC4)c3[nH]2)cc1 (2 µM)
2: LIMK2
0: all other assays above

NC1(C(=O)NCCCn2cc(-c3ccc(OC(F)(F)F)cc3)c3cc(CN4CCN(Cc5c(Cl)cccc5Cl)CC4)ccc32)CCNCC1 (2.5 µM)
1: FYN
0: all other assays above

O=c1c2c([nH]n1-c1nc3ccccc3s1)CCCC2 (10 µM)
0: all assays above

CC(Cc1ccc(O)c(O)c1)C(C)Cc1ccc(O)c(O)c1 (stereo not given) [Nordihydroguaiaretic acid] (2.5 µM)
0: all assays above

CCNC(=O)C#Cc1ccc2c(C(=Nc3ccc(CN(C)C)cc3)c3ccccc3)c(O)[nH]c2c1 (2.5 µM)
3: HER2
0: all other assays above

COc1cc2c(cc1O)C[C@H]1c3cc(O)c(OC)cc3CC[N@@+]1(C)C2 [Phellodendrine] (10 µM)
0: all assays above

N#Cc1ccc(-c2cnc3ccc(-c4ccc(C(=O)N5CCOCC5)cc4)cn23)cc1 (10 µM)
0: all assays above

CN1CCC(CNc2ccc3ncc(-c4cccc(OC(F)(F)F)c4)n3n2)CC1 (2.5 µM)
0: all assays above

Quoted at random: 2 entries already listed.
CN(C)c1ccc(-c2nc3ncc(Cl)c(N4CCN(CC(=O)Nc5nccs5)CC4)c3[nH]2)cc1 (2 µM)
2: LIMK2
0: all other assays above

NC1(C(=O)NCCCn2cc(-c3ccc(OC(F)(F)F)cc3)c3cc(CN4CCN(Cc5c(Cl)cccc5Cl)CC4)ccc32)CCNCC1 (2.5 µM)
1: FYN
0: all other assays above

Remaining list, next part

C#Cc1cccc(Nc2ncnc3cc(OC)c(NC(=O)N4C[C@H]5CCN(C)[C@H]5C4)cc23)c1 [Theliatinib] (10 µM)
0: all assays above

Cc1c(Cl)cccc1S(=O)(=O)Nc1nc(NCCc2ccccc2)nc2c1CN(Cc1ccccc1)CC2 (2.5 µM)
0: all assays above
